Reference: paper PMC8066055
These are yes or no findings as the source states them, for the method shown. Binding seen in cells or lysates may run through a third protein. Some binding calls cover weakened binding; strength is not graded here. Where a sequence is shown, tags or fusion partners need not be part of it.

Target: T1, JMJ29 fused to the C-terminal half of EYFP (Arabidopsis thaliana) (UniProt C0SV12)
T1 sequence: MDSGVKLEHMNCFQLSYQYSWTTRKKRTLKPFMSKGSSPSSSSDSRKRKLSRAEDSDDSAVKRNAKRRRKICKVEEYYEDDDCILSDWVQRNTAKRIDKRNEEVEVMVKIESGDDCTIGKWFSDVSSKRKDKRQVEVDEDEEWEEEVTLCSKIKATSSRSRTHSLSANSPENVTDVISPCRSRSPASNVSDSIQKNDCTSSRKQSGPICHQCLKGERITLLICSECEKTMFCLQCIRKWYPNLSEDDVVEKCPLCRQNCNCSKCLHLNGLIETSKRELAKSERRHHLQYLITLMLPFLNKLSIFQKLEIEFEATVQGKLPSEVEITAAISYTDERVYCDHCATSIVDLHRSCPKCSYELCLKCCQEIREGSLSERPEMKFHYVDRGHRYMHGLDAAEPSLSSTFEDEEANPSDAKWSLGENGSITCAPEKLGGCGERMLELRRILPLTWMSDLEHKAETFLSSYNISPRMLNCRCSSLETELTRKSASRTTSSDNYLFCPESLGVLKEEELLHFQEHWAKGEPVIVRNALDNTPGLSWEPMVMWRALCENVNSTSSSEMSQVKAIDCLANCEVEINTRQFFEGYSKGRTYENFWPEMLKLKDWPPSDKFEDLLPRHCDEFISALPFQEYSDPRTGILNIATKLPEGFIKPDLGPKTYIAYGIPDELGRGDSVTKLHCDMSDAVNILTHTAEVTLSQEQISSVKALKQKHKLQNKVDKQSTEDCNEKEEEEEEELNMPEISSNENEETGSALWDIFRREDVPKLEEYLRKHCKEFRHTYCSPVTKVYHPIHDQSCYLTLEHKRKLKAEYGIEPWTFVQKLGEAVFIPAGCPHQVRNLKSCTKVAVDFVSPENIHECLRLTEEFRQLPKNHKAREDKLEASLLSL
Experiment: split reporter; BiFC; nEYFP and cEYFP fusions co-transfected into Arabidopsis protoplasts with mCherry-NLS nuclear marker; observed after 14 h by confocal imaging

binding: binds
B1: LUX fused to the N-terminal half of EYFP (protein, UniProt Q9SNB4 1-323)
chain: MGEEVQMSDYDVSGDGDRVSEWEMGLPSDEDLASLSYSLIPPNLAMAFSITPERSRTIQDVNRASETTLSSLRGGSSGPNTSSSNNNVEEEDRVGSSSPGSDSKKQKTSNGDGDDGGGVDPDSAMAAEEGDSGTEDLSGKTLKRPRLVWTPQLHKRFVDVVAHLGIKNAVPKTIMQLMNVEGLTRENVASHLQKYRLYLKRMQGLTNEGPSASDKLFSSTPVPPQSFQDIGGGGGSSGNVGVPIPGAYGTQQMMQMPVYAHHMGMQGYHHQNHNHDPYHQNHRHHHGAGGNGAFESNPYMMQQNKFGSMASYPSVGGGSANEN
